Test results as given in the supplement of paper PMC12823440, “Inhibitors supercharge kinase turnover through native proteolytic circuits” (Nature, 2025).
Counter-ions that a name gives are not always drawn. Some of the results follow. Hit calls seldom repeat between salt and free forms of one compound.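 Kinases were expressed as nanoluciferase fusions in K562 cells and luminescence was read every 4 h between 2 and 18 h as percent of control, DMSO set to 100% and a positive control to 0%. A time point counts as decreased when the signal drops significantly (2 sigma). The hit call is the authors' own, does not follow from the count of time points alone, and its rule is not shown.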

Protein sequences, listed by entry. Tags and fused reporters are not part of them. Lines headed by an entry give the natural chain unless they say otherwise; changes in a name come on top.
UniProt Q9UQM7, whole entry: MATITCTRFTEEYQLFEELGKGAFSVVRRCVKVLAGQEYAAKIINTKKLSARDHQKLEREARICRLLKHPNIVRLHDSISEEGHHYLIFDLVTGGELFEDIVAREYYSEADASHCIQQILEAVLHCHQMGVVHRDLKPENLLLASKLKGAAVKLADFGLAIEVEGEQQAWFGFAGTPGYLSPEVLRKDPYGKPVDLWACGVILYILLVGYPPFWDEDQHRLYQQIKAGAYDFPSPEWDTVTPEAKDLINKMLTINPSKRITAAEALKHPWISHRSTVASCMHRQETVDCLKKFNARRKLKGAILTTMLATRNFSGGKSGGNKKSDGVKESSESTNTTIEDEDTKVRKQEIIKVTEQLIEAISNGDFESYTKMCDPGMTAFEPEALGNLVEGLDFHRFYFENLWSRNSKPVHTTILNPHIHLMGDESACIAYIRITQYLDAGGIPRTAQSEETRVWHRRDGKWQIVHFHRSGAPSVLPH
UniProt Q13555: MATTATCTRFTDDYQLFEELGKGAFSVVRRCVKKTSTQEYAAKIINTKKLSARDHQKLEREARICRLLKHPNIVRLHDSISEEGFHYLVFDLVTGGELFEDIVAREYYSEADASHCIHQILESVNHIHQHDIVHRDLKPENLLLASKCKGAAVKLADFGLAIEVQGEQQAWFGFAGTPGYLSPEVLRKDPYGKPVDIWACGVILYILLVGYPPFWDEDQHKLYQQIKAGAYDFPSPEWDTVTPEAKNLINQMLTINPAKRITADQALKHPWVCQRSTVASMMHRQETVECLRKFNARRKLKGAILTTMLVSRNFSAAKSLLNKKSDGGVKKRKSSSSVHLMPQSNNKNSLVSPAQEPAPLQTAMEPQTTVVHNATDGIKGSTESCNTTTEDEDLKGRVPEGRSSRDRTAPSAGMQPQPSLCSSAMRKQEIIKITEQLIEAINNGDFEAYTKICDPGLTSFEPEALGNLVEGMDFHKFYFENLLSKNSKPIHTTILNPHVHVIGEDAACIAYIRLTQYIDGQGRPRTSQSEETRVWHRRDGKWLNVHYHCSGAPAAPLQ
UniProt Q15131: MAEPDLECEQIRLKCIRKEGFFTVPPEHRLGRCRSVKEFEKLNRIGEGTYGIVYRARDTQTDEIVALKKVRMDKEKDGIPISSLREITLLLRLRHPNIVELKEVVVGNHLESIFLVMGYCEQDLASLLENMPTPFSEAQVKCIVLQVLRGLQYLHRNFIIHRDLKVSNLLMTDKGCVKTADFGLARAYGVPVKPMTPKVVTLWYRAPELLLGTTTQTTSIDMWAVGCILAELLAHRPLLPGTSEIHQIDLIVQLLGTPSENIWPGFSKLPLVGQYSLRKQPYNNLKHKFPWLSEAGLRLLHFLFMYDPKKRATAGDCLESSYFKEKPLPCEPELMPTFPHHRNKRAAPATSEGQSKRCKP
UniProt Q00526: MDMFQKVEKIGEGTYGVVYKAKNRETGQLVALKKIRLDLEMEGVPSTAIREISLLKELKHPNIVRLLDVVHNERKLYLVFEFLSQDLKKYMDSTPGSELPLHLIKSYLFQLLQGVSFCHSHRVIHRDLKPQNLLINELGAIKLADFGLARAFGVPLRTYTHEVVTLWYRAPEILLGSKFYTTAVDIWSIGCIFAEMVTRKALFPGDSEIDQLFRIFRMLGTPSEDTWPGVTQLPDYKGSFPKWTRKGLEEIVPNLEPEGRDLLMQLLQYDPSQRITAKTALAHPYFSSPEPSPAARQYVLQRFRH
UniProt Q00535, whole entry, looked up: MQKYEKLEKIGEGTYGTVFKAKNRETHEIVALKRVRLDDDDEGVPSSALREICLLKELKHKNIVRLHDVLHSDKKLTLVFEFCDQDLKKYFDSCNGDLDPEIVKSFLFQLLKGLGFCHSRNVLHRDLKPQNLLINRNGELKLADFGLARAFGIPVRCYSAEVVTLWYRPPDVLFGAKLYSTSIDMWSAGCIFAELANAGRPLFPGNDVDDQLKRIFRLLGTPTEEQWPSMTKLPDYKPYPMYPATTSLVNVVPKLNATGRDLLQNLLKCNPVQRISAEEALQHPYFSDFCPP
UniProt Q00534, whole entry: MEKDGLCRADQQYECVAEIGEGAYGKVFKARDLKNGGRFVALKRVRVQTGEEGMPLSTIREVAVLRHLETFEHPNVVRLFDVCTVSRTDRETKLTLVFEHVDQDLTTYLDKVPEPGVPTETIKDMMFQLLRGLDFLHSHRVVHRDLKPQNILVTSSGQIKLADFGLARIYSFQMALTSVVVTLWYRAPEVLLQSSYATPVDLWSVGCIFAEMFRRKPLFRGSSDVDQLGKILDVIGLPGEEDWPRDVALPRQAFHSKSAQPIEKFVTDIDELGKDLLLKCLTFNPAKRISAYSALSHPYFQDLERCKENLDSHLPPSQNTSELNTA
UniProt O96017, whole entry: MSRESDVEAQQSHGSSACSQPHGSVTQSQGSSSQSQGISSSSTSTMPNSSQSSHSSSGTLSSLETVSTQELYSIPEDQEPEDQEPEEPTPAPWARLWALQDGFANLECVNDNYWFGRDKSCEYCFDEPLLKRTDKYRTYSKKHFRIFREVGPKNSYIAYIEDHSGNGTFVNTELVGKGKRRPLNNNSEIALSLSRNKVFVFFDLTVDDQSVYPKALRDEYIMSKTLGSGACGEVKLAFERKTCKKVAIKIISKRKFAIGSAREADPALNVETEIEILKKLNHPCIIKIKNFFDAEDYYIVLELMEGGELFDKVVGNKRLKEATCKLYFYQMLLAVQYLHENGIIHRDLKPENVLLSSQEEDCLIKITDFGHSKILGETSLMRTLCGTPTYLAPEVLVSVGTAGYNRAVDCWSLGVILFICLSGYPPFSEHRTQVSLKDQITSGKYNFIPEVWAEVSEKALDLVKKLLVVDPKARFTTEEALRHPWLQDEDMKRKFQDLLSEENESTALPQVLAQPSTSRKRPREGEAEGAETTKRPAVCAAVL
UniProt P07333, whole entry: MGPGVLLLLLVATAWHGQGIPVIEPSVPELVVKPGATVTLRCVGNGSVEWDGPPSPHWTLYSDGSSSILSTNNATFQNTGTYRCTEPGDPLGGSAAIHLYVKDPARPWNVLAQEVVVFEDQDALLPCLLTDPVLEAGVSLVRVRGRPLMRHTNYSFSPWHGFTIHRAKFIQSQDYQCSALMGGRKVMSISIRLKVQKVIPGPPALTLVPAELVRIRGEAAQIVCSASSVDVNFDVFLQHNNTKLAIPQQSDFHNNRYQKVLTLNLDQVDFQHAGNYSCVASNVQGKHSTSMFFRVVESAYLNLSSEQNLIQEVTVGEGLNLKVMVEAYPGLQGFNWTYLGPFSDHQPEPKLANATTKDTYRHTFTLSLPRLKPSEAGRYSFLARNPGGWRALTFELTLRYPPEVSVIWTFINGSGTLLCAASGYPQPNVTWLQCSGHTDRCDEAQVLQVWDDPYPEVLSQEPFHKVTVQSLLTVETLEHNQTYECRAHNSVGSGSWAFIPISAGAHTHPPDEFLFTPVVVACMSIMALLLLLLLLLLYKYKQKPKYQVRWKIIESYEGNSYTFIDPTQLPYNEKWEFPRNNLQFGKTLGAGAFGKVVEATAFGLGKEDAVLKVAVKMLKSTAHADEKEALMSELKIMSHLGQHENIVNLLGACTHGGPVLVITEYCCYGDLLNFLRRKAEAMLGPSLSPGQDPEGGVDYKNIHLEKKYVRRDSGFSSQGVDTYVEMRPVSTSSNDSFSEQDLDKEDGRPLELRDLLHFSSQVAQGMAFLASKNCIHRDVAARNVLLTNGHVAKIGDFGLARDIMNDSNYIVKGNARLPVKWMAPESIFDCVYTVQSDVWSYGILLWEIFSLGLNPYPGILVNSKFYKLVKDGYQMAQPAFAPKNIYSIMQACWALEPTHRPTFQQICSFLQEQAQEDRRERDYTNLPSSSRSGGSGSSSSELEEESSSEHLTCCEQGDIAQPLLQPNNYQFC
UniProt P41240: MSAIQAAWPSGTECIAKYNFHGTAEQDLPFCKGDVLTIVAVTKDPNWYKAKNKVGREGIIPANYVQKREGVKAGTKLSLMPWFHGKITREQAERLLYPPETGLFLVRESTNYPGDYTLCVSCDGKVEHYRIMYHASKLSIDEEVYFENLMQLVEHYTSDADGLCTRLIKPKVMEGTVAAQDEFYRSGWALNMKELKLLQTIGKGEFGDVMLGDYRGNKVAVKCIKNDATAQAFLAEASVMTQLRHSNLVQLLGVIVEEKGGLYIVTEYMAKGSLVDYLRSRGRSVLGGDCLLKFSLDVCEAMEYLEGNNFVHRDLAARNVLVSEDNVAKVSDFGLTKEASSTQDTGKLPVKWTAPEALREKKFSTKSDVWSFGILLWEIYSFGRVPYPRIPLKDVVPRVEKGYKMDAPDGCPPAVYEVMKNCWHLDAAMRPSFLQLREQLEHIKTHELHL
UniProt P48729: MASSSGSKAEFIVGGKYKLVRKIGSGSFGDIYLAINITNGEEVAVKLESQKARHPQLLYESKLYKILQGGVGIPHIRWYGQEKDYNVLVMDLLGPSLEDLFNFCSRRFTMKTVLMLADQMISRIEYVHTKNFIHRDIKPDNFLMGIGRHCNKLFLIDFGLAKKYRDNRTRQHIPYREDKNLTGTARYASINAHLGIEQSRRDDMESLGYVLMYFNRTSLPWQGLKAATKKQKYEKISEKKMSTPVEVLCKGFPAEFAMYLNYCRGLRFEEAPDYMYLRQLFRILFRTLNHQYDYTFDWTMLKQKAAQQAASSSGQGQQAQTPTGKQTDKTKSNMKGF
UniProt P48730: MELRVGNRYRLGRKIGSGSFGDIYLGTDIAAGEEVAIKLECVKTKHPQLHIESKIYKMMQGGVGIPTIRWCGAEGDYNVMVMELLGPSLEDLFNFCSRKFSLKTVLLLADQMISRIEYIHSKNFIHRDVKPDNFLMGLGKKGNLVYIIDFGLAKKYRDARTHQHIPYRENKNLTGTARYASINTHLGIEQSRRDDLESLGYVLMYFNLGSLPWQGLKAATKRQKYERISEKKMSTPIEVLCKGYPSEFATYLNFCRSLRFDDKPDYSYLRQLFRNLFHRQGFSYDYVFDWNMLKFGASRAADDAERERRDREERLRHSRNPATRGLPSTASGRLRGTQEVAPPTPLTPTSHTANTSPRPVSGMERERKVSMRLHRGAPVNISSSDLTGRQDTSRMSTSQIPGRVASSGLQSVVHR
UniProt Q08345: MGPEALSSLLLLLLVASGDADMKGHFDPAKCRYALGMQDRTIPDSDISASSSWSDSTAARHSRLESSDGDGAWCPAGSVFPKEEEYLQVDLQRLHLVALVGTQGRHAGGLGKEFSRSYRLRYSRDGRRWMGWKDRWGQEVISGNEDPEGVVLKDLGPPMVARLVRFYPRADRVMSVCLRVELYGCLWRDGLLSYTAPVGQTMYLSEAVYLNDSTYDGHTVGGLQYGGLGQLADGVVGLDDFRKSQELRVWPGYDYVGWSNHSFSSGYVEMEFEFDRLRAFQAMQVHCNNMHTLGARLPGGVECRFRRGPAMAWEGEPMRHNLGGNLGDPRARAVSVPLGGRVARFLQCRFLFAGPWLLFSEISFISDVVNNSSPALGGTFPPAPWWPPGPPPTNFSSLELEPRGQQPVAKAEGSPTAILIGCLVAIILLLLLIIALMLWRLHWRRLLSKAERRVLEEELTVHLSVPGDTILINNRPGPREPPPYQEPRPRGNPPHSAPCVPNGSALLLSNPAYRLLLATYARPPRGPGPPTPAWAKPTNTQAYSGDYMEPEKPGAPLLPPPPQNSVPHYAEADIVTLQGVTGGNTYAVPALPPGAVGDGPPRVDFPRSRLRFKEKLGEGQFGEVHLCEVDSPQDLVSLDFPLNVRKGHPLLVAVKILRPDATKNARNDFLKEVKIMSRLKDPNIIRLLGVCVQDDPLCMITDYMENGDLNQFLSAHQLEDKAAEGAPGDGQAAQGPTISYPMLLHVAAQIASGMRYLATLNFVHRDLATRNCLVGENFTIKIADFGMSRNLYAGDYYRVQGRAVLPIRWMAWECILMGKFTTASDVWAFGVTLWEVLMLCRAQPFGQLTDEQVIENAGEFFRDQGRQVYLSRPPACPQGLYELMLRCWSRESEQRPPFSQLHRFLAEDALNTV
UniProt Q92630: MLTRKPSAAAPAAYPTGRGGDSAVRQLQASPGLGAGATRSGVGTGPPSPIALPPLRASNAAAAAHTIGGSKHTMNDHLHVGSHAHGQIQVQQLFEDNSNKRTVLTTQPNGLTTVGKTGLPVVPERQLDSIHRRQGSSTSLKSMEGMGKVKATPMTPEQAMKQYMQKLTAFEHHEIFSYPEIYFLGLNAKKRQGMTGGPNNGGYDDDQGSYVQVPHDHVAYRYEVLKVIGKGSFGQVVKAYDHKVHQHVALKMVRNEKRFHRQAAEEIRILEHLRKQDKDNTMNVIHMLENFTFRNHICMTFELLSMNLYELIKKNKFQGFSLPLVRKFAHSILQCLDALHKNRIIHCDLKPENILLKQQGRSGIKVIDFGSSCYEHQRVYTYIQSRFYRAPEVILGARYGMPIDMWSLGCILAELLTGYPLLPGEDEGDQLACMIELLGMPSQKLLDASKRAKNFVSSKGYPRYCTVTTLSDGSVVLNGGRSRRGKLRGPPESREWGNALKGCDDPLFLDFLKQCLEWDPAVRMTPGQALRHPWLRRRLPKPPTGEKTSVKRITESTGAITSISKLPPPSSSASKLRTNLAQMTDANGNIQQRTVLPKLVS

Legend:
Test in all cases: number of time points (of 5) at which kinase-Nluc abundance scored as decreased, DMSO-normalised (count); higher = more persistent destabilization
Conditions in all cases: K562; 2-18 h
CAMK2A = CAMK2A (UniProt Q9UQM7)
CAMK2G = CAMK2G (UniProt Q13555)
CDK10 = CDK10 (UniProt Q15131)
CDK2 = CDK2 (UniProt P24941)
CDK3 = CDK3 (UniProt Q00526)
CDK5 = CDK5 (UniProt Q00535)
CDK6 = CDK6 (UniProt Q00534)
CHEK2 = CHEK2 (UniProt O96017)
CSF1R = CSF1R (UniProt P07333)
CSK = CSK (UniProt P41240)
CSNK1A1 = CSNK1A1 (UniProt P48729)
CSNK1D = CSNK1D (UniProt P48730)
DDR1 = DDR1 (UniProt Q08345)
DYRK1B = DYRK1B (UniProt Q9Y463)
DYRK2 = DYRK2 (UniProt Q92630)
EGFR = EGFR (UniProt P00533)
EGFR_G719S = EGFR_G719S (UniProt P00533)
EGFR_G719S_T790M = EGFR_G719S_T790M (UniProt P00533)
EGFR_L718V = EGFR_L718V (UniProt P00533)
EGFR_L858R = EGFR_L858R (UniProt P00533)

| Structure (SMILES) | number of time points (CAMK2A) | number of time points (CAMK2G) | number of time points (CDK10) | number of time points (CDK2) | number of time points (CDK3) | number of time points (CDK5) | number of time points (CDK6) | number of time points (CHEK2) | number of time points (CSF1R) | number of time points (CSK) | number of time points (CSNK1A1) | number of time points (CSNK1D) | number of time points (DDR1) | number of time points (DYRK1B) | number of time points (DYRK2) | number of time points (EGFR) | number of time points (EGFR_G719S) | number of time points (EGFR_G719S_T790M) | number of time points (EGFR_L718V) | number of time points (EGFR_L858R) |
| --- | --- | --- | --- | --- | --- | --- | --- | --- | --- | --- | --- | --- | --- | --- | --- | --- | --- | --- | --- | --- |
| Cn1c(=O)n(-c2ccc(C(C)(C)C#N)cc2)c2c3cc(-c4cnc5ccccc5c4)ccc3ncc21 [Dactolisib (Tosylate)] (10 µM) | 0 | 3 | 2 | 0 | 0 | 0 | 0 | 4 | 4 | 0 | 0 | 0 | 3 | 1 | 4 | 1 | 2 | 0 | 0 | 0 |
| Cc1c[nH]c(/C=C2\C(=O)Nc3ccccc32)c1CCC(=O)O (10 µM) | 1 | 0 | 0 | 0 | 0 | 0 | 0 | 0 | 0 | 0 | 0 | 0 | 0 | 0 | 0 | 0 | 0 | 0 | 0 | 0 |
| CN(C)C(=O)/C(C#N)=C/c1ccc(-c2nc3cnc4[nH]ccc4c3n2C2CCCCC2)o1 (10 µM) | 0 | 0 | 0 | 0 | 0 | 0 | 0 | 0 | 0 | 0 | 0 | 0 | – | 0 | 0 | 0 | 0 | 0 | 0 | 0 |
| Cc1nc(N)sc1-c1ccnc(Nc2ccc(N3CCOCC3)cc2)n1 (10 µM) | 0 | 0 | 0 | 0 | 0 | 0 | 0 | 0 | 0 | 0 | 1 | – | 0 | 0 | 0 | – | – | – | – | – |
| Cc1c(C(=O)N2CCOc3ccc(-c4ccc(N)nc4)cc3C2)ccc(S(C)(=O)=O)c1F (10 µM) | 0 | 0 | 0 | 0 | 0 | 0 | 0 | 0 | 0 | 0 | 0 | – | 0 | 0 | 2 | – | – | – | – | – |
| COc1cc(F)cc([C@@H](CO)NC(=O)[C@@H](C)N2Cc3ccc(-c4nc(NC5CCOCC5)ncc4Cl)cc3C2=O)c1 [ERK1/2 inhibitor 2] (10 µM) | 0 | 0 | 0 | 0 | 0 | 0 | 0 | 0 | 0 | 0 | 0 | 0 | 0 | 0 | 0 | 0 | 0 | 0 | 0 | 0 |
| C=CC(=O)N1CCC[C@@H](n2nc(-c3ccc(Oc4ccccc4)cc3)c(C(N)=O)c2N)C1 [Btk inhibitor 2] (10 µM) | 0 | 0 | 0 | 0 | 0 | 0 | 0 | 0 | 0 | 0 | 0 | 0 | 0 | 0 | 1 | 0 | 0 | 0 | 0 | 0 |
| Cc1c[nH]c2ccccc12 [Skatole] (10 µM) | 0 | 0 | 0 | 0 | 0 | 0 | 0 | 0 | 0 | 0 | 0 | 0 | 0 | 0 | 0 | 0 | 0 | 0 | 0 | 0 |
| COc1c(CC=C(C)C)c(O)cc2oc(=O)c(-c3ccc(O)cc3O)cc12 [Glycycoumarin] (10 µM) | 0 | 0 | 0 | 0 | 0 | 0 | 0 | 0 | 0 | 0 | 0 | 0 | 0 | 0 | 0 | 0 | 0 | 0 | 0 | 0 |
| COc1ccc(Oc2cc(NCCC(F)(F)F)c3ncc(-c4ccc(C(=O)NC5CC5)c(C)c4)n3n2)c(F)c1F (2.5 µM) | 0 | 0 | 0 | 0 | 0 | 0 | 0 | 0 | 0 | 0 | 0 | 0 | 0 | 0 | 0 | 0 | 0 | 0 | 0 | 0 |
| Cc1cc(C)c(/C=C2\C(=O)Nc3ccccc32)[nH]1 [Semaxinib] (10 µM) | 0 | 0 | 0 | 0 | 0 | 0 | 0 | 0 | 0 | 0 | – | 0 | 0 | 0 | 0 | – | – | – | – | – |
| CN(c1ncccc1CNc1nc(Nc2ccc3c(c2)CC(=O)N3)ncc1C(F)(F)F)S(C)(=O)=O (2.5 µM) | 0 | 0 | 0 | 0 | 0 | 0 | 0 | 0 | 0 | 0 | – | 0 | 3 | 0 | 1 | – | – | – | – | – |
| O=C([O-])c1ccccc1O.[Na+] [Sodium Salicylate] (10 µM) | 0 | 0 | 0 | 0 | 0 | 0 | 0 | 0 | 0 | 0 | 0 | 0 | 0 | 0 | 0 | 0 | 0 | 0 | 0 | 0 |
| COc1cc(C(=O)NC2CCN(C)CC2)c(F)cc1Nc1ncc2c(n1)N(C1CCCC1)CC(F)(F)C(=O)N2C [TAK-960 (dihydrochloride)] (2.5 µM) | 0 | 0 | 0 | 0 | 0 | 0 | 0 | 0 | 0 | 0 | 0 | 0 | 0 | 0 | 0 | 0 | 0 | 0 | 0 | 0 |
| CCN1CCN(Cc2ccc(C(=O)Nc3ccc(C)c(Oc4ccc5c(c4)CC(=O)N5)c3)cc2C(F)(F)F)CC1 (2.5 µM) | 0 | 2 | 1 | 0 | 0 | 0 | 0 | 2 | 1 | 0 | 1 | 1 | – | 1 | 3 | 0 | 2 | 2 | 1 | 3 |
| CC(C)(/C=C(\C#N)C(=O)N1CCC[C@@H](n2nc(-c3ccc(Oc4ccccc4)cc3F)c3c(N)ncnc32)C1)N1CCN(C2COC2)CC1 (2.5 µM) | 0 | 0 | 0 | 0 | 0 | 0 | 0 | 0 | 0 | 0 | 0 | 0 | 0 | 0 | 0 | 0 | 0 | 0 | 0 | 0 |
| COc1cc(Nc2ncc3c(n2)-c2ccc(Cl)cc2C(c2c(F)cccc2OC)=NC3)ccc1C(=O)O [Alisertib] (2.5 µM) | 0 | 0 | 0 | 0 | 0 | 1 | 0 | 0 | 0 | 0 | – | 0 | 1 | 0 | 0 | – | – | – | – | – |
| O=c1oc2c(C3OCCCO3)c(O)ccc2c2c1CNCC2 (10 µM) | 0 | 0 | 0 | 0 | 0 | 0 | 0 | 0 | 0 | 0 | 0 | 0 | 0 | 0 | 0 | 0 | 0 | 0 | 0 | 0 |
| CC(=O)NCC(=O)N1[C@@H]2CC[C@H]1c1ccc(Nc3ncc(C(F)(F)F)c(NC4CCC4)n3)cc12 (2.5 µM) | 0 | 2 | 0 | 0 | 0 | 0 | 0 | 2 | 3 | 0 | 0 | – | 4 | 0 | 4 | – | – | – | – | – |
| COc1ccc(NC(=O)N2CCN(c3nc(N)nc4c3cnn4C)[C@@H](C)C2)c(C)c1 (10 µM) | 0 | 0 | 0 | 0 | 0 | 0 | 0 | 0 | 0 | 0 | 0 | 0 | 0 | 0 | 0 | 0 | 0 | 0 | 0 | 0 |
| CC(C)(C#N)c1ccc(N2C(=O)OCc3cnc4ccc(-c5cnc6ccccc6c5)cc4c32)cc1 (2.5 µM) | 0 | 0 | 0 | 0 | 0 | 0 | 0 | 0 | 0 | 0 | 0 | 0 | 0 | 0 | 0 | 0 | 3 | 0 | 0 | 0 |
| CCc1nc(-c2cccc(C)c2)c(-c2ccnc(NC(=O)c3ccccc3)c2)s1 (10 µM) | 0 | 0 | 0 | 0 | 0 | 0 | 0 | 0 | 0 | 0 | – | 0 | 0 | 0 | 0 | – | – | – | – | – |
| CC(C)C(=O)Nc1ncc(-c2cc(C(F)F)nn2-c2c(Cl)cccc2Cl)s1 (10 µM) | 0 | 0 | 0 | 0 | 0 | 0 | 0 | 0 | 0 | 0 | 1 | 0 | 0 | 0 | 0 | 0 | – | 0 | 0 | 0 |
| CCCCC[C@H](O)CC(=O)CCc1ccc(O)c(OC)c1 [[6]-Gingerol] (10 µM) | 0 | 0 | 0 | 0 | 0 | 0 | 0 | 0 | 0 | 0 | 0 | 0 | 0 | 0 | 0 | – | 0 | 0 | 0 | 0 |
| COc1cc(OC)cc(N(CCNC(C)C)c2ccc3ncc(-c4cnn(C)c4)nc3c2)c1 [Erdafitinib] (2.5 µM) | 0 | 0 | 0 | 0 | 0 | 0 | 0 | 0 | 0 | 0 | 0 | 0 | 0 | 0 | 1 | 0 | 0 | 0 | 0 | 0 |
| COCCOc1cc2nccc(Nc3n[nH]c(C)c3C)c2cc1S(=O)(=O)C(C)(C)C [RIP2 kinase inhibitor 2] (2.5 µM) | 0 | 0 | 0 | 0 | 0 | 0 | 0 | 0 | 0 | 0 | 0 | 0 | 0 | 0 | 0 | 0 | 0 | 0 | 0 | 0 |

Retrieved by structure from the entries so far, 2 records:

| Structure (SMILES) | number of time points (CAMK2A) | number of time points (CAMK2G) | number of time points (CDK10) | number of time points (CDK2) | number of time points (CDK3) | number of time points (CDK5) | number of time points (CDK6) | number of time points (CHEK2) | number of time points (CSF1R) | number of time points (CSK) | number of time points (CSNK1A1) | number of time points (CSNK1D) | number of time points (DDR1) | number of time points (DYRK1B) | number of time points (DYRK2) | number of time points (EGFR) | number of time points (EGFR_G719S) | number of time points (EGFR_G719S_T790M) | number of time points (EGFR_L718V) | number of time points (EGFR_L858R) |
| --- | --- | --- | --- | --- | --- | --- | --- | --- | --- | --- | --- | --- | --- | --- | --- | --- | --- | --- | --- | --- |
| CN(C)C(=O)/C(C#N)=C/c1ccc(-c2nc3cnc4[nH]ccc4c3n2C2CCCCC2)o1 (10 µM) | 0 | 0 | 0 | 0 | 0 | 0 | 0 | 0 | 0 | 0 | 0 | 0 | – | 0 | 0 | 0 | 0 | 0 | 0 | 0 |
| CN(c1ncccc1CNc1nc(Nc2ccc3c(c2)CC(=O)N3)ncc1C(F)(F)F)S(C)(=O)=O (2.5 µM) | 0 | 0 | 0 | 0 | 0 | 0 | 0 | 0 | 0 | 0 | – | 0 | 3 | 0 | 1 | – | – | – | – | – |
